PubChem BioAssay AID652054 (National Center for Advancing Translational Sciences (NCATS), 2013)
The whole screen tested about 360,000 compounds, of which about 9,100 (2.5%) were called active. Inconclusive means that the source gave no clear call. Such entries were picked first, then a sample of the others. Cut-off read from the data, not from the text of the source: active = max response below about -50%; inconclusive = no clear call, values can overlap the other calls; inactive = above that.

Protein sequences, listed by entry. Tags and fused reporters are not part of them.
UniProt P35462, whole entry, looked up: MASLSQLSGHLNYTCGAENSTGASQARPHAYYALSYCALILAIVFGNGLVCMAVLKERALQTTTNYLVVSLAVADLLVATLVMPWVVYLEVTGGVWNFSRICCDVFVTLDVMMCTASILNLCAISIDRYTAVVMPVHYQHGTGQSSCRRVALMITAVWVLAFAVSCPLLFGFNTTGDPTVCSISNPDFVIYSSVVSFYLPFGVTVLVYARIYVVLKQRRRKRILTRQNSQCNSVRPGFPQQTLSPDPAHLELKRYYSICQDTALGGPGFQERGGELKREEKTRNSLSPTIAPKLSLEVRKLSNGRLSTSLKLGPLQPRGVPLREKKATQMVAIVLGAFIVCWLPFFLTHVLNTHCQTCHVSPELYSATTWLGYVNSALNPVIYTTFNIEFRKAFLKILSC

molecular target: D(3) dopamine receptor (Homo sapiens) (UniProt P35462); assay: qHTS of D3 Dopamine Receptor Antagonist: qHTS; details: D3R cells, DiscoveRx beta-arrestin luminescence, antagonist mode; stronger effect = lower value
How it was run: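 Cells plated overnight at 1500 cells/well, then exposed to library compounds with dopamine controls for 90 minutes at 37 degrees C. DiscoveRx reagent added for 30–60 minutes at room temperature; luminescence read, quantitative HTS format.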
% is set by controls: 0 for no effect and ±100 for the full control effect.

Q: Which max response, negative = inhibition does the source give for Cc1cc(-c2nnc(CSc3nnc(NC(=O)c4ccc(C(C)(C)C)cc4)s3)o2)ccc1[N+](=O)[O-] here?
A: Its max response, negative = inhibition is inactive: -4.29%.

Q: How did the max response, negative = inhibition turn out when Cc1ccc(-c2nc(CS(=O)CC(=O)NCc3ccc4c(c3)OCO4)c(C)o2)cc1 (stereo not drawn) was run?
A: The max response, negative = inhibition was inconclusive: -35.9%.

Q: For Cc1ccc2nc3c(c(N)c2c1)CCN3C, which max response, negative = inhibition is on record?
A: The max response, negative = inhibition was inconclusive: -46.3%.

Q: How did the max response, negative = inhibition turn out when Cc1ccc2c(c1)c1c(n2CC(O)CN2CCCCCC2)CCCC1 (stereo not drawn) was run?
A: Its max response, negative = inhibition is active: -68%.

Q: For CC(C)OC(=O)CSc1nnc(-c2ccncc2)n1N, which max response, negative = inhibition is on record?
A: Its max response, negative = inhibition is inactive: 7.11%.

Q: With COc1ccccc1CCC(=O)N(C)C1CCCN(Cc2ccccc2F)C1 (stereo not drawn) as the compound, how does the max response, negative = inhibition read?
A: The max response, negative = inhibition was inconclusive: -37.9%.

Q: For Cc1ccsc1/C=N/NC(=O)c1nnn(-c2nonc2N)c1-c1ccccc1, which max response, negative = inhibition is on record?
A: Its max response, negative = inhibition is inconclusive: -36.2%.

Q: CCOc1cc(/C=C\[N+](=O)[O-])ccc1OCC(=O)Nc1ccccc1C was tested. Which max response, negative = inhibition did it give?
A: Its max response, negative = inhibition is inactive: -26.2%.

Q: Which max response, negative = inhibition does the source give for O=C(C[C@@H]1C[C@H]2c3cc(NC(=O)C4CCC4)ccc3O[C@H]2[C@@H](CO)O1)NCc1ccc(-c2ccccc2)cc1 here?
A: Its max response, negative = inhibition is inconclusive: -31.3%.

Q: For COc1ccc(C(=O)NCc2ccc(OCCN(C)C)cc2)cc1OC, which max response, negative = inhibition is on record?
A: The max response, negative = inhibition was active: -72.4%.

Q: CC(=O)Nc1cccc(N2C(=O)CC(N3CCC(C(=O)N4CCCCC4)CC3)C2=O)c1 (stereo not drawn) was tested. Which max response, negative = inhibition did it give?
A: The max response, negative = inhibition was active: -58.9%.

Q: With Cn1c(=O)c2c(nc(NN=C3CCCC3)n2C)n(C)c1=O as the compound, how does the max response, negative = inhibition read?
A: Its max response, negative = inhibition is inactive: -3.91%.

Q: Which max response, negative = inhibition does the source give for CCOC(=O)C(NC(=O)CC)(N1CCc2ccccc2C1)C(F)(F)F (stereo not drawn) here?
A: Its max response, negative = inhibition is inactive: 0%.

Q: Cc1ccc(OCCOCCN2CCCC2)c(Br)c1 was tested. Which max response, negative = inhibition did it give?
A: The max response, negative = inhibition was inconclusive: -35%.

Q: How did the max response, negative = inhibition turn out when Cc1ccc(C)c(C(=O)NC2CC(C)(C)NC(C)(C)C2)c1 was run?
A: The max response, negative = inhibition was inconclusive: -41.9%.

Q: How did the max response, negative = inhibition turn out when CC(C)CNC(=O)NC1(C(F)(F)F)Oc2ccccc2O1 was run?
A: Its max response, negative = inhibition is inactive: 5.44%.

Q: For Cc1ccc2oc(=O)n(Cc3ccccc3OC(C)C)c2c1, which max response, negative = inhibition is on record?
A: The max response, negative = inhibition was inactive: 3.3%.

Q: How did the max response, negative = inhibition turn out when Cc1cc(C)cc(-n2nnnc2SCC(=O)Nc2nc(-c3ccc(Cl)cc3)cs2)c1 was run?
A: Its max response, negative = inhibition is inconclusive: -47.6%.

Q: How did the max response, negative = inhibition turn out when COc1cccc(-c2cnc3c(NC=O)cc(-c4ccc(N(C)C)cc4)cn23)c1 was run?
A: The max response, negative = inhibition was inactive: 2.45%.

Q: COc1ccc(/C=C/C(=O)c2sc(-c3ccccc3)nc2C)cc1 was tested. Which max response, negative = inhibition did it give?
A: The max response, negative = inhibition was inconclusive: -39.5%.

Q: How did the max response, negative = inhibition turn out when Cc1oc(=O)cc(OCc2ccccc2)c1C was run?
A: The max response, negative = inhibition was inconclusive: -32.2%.

Q: How did the max response, negative = inhibition turn out when Cc1ccc(-c2nn(-c3ccccc3Cl)cc2C(=O)NCC2CCCO2)cc1 (stereo not drawn) was run?
A: The max response, negative = inhibition was inactive: 4.75%.

Q: For O=C(COc1cccc2c1CCN(Cc1ccc(Br)cc1)C2=O)NCc1ccco1, which max response, negative = inhibition is on record?
A: The max response, negative = inhibition was inactive: -19.1%.

Q: How did the max response, negative = inhibition turn out when COc1ccc(CN(C)C2CCCCC2)c(C)c1C was run?
A: The max response, negative = inhibition was inconclusive: -40%.

Q: For COc1ccc(CCNC(=O)c2ccc3c(c2)OCCO3)cc1, which max response, negative = inhibition is on record?
A: Its max response, negative = inhibition is inactive: -15.3%.

Q: Which max response, negative = inhibition does the source give for N#Cc1cc2c(nc1SCc1cccnc1)CCC2 here?
A: Its max response, negative = inhibition is inconclusive: -30.5%.

Q: CCOc1ccc(OCCOCCN2CCOCC2)cc1 was tested. Which max response, negative = inhibition did it give?
A: The max response, negative = inhibition was inconclusive: -38.8%.

Q: Which max response, negative = inhibition does the source give for Cc1ccc(C(=O)C2CCN(CC(=O)Nc3ccccc3C)CC2)cc1 here?
A: Its max response, negative = inhibition is inconclusive: -33.9%.

Q: Which max response, negative = inhibition does the source give for CC(C)(C)c1ccc(N/N=C(\C#N)S(=O)(=O)C(C)(C)C)cc1 here?
A: The max response, negative = inhibition was inactive: 10%.

Q: With CCN1CCN(CC(=O)N/N=C/c2ccc(F)cc2F)CC1 as the compound, how does the max response, negative = inhibition read?
A: The max response, negative = inhibition was inconclusive: -30.6%.

Q: For Cc1cc(SCC(=O)N/N=C/c2ccc(O)c(O)c2)c(C)cc1Br, which max response, negative = inhibition is on record?
A: The max response, negative = inhibition was inactive: 11.2%.

Q: With CCc1ccccc1N1CSC2=C(C#N)C(c3cc(OC)c(OC)cc3OC)CC(=O)N2C1 (stereo not drawn) as the compound, how does the max response, negative = inhibition read?
A: The max response, negative = inhibition was active: -67.9%.

Q: With CCCCNC(=O)/C(C#N)=C/c1ccc2c(c1)OCCO2 as the compound, how does the max response, negative = inhibition read?
A: Its max response, negative = inhibition is inactive: -9.99%.

Q: For COc1ccc(-n2c(-c3ccc(Br)cc3)c[n+]3c2CCc2ccccc2-3)cc1, which max response, negative = inhibition is on record?
A: The max response, negative = inhibition was inactive: -17.3%.

Q: CCN(CC)c1ccc(CNc2nc3ccccc3n2C(C)C)cc1 was tested. Which max response, negative = inhibition did it give?
A: The max response, negative = inhibition was inconclusive: -38.1%.

Q: Which max response, negative = inhibition does the source give for CC(=O)NC(c1cccc([N+](=O)[O-])c1)c1c(OC(C)=O)ccc2ccccc12 (stereo not drawn) here?
A: The max response, negative = inhibition was active: -67.8%.

Q: How did the max response, negative = inhibition turn out when O=C(COc1ccc(Br)cc1)NCCN1CCCC1 was run?
A: The max response, negative = inhibition was inconclusive: -41%.

Q: For Cc1cc(Cl)ccc1OCc1nc(-c2ccc(O)cc2)n[nH]1, which max response, negative = inhibition is on record?
A: The max response, negative = inhibition was inconclusive: -43.9%.

Q: Which max response, negative = inhibition does the source give for Cn1cc(S(=O)(=O)N2CCCC2)cc1C(=O)NCc1ccccc1Cl here?
A: Its max response, negative = inhibition is inconclusive: -31.6%.

Q: Which max response, negative = inhibition does the source give for COC(=O)[C@@]12C[C@@H](CC(=O)NCCc3ccccc3OC)C(=O)N(Cc3ccc4c(c3)OCO4)C1=CCC(C)(C)C2 here?
A: Its max response, negative = inhibition is inconclusive: -36.9%.

Q: How did the max response, negative = inhibition turn out when NC(=O)CCC(=O)N1CCCC(C(=O)c2ccc(C(F)(F)F)cc2)C1 (stereo not drawn) was run?
A: The max response, negative = inhibition was inactive: 1.31%.

Q: CC(C)CNC(=S)NNC(=O)c1csc2c1CCC(C)C2 (stereo not drawn) was tested. Which max response, negative = inhibition did it give?
A: The max response, negative = inhibition was active: -55%.

Q: For Cc1[nH]n(C(N)=S)c(=O)c1N=Nc1cccc(C(F)(F)F)c1, which max response, negative = inhibition is on record?
A: The max response, negative = inhibition was inactive: -15.9%.

Q: N#CCCN(Cc1cccnc1)C(=S)NC1CC2C=CC1C2 (stereo not drawn) was tested. Which max response, negative = inhibition did it give?
A: Its max response, negative = inhibition is inactive: -22.2%.

Q: Which max response, negative = inhibition does the source give for COc1ccccc1NC(=O)NNC(=O)c1ccc2ccccc2c1O here?
A: Its max response, negative = inhibition is inactive: 12.8%.

Q: For CCCN(c1ccccc1F)S(=O)(=O)c1cc(-c2cc(C)no2)ccc1OC, which max response, negative = inhibition is on record?
A: The max response, negative = inhibition was inactive: -0.296%.

Q: O=C(COc1cc(Cl)c(Cl)cc1Cl)NCCN1CCOCC1 was tested. Which max response, negative = inhibition did it give?
A: The max response, negative = inhibition was inconclusive: -30.4%.

Q: Cc1nonc1C(=O)N/N=C/c1ccc(O)c(O)c1 was tested. Which max response, negative = inhibition did it give?
A: Its max response, negative = inhibition is inactive: -2.23%.

Q: For O=C(O)c1[nH]c2ccccc2c1NS(=O)(=O)Cc1ccccc1, which max response, negative = inhibition is on record?
A: Its max response, negative = inhibition is inactive: -29.1%.

Q: For CCOC(=O)c1sc(N(Cc2ccccc2)C(=O)CSc2nnc(C3CC3)n2N)nc1C, which max response, negative = inhibition is on record?
A: Its max response, negative = inhibition is inconclusive: -35.4%.

Q: Which max response, negative = inhibition does the source give for Cc1cc(Br)ccc1OCc1nnc(-c2ccccc2)o1 here?
A: The max response, negative = inhibition was inconclusive: -43.6%.

Q: How did the max response, negative = inhibition turn out when COc1ccc2oc(-c3ccccc3)c(C(=O)O)c2c1 was run?
A: Its max response, negative = inhibition is inconclusive: -39.6%.

Q: How did the max response, negative = inhibition turn out when Cc1ccc(CSc2nc3nc(C)cc(C)c3c(=O)[nH]2)cc1 was run?
A: Its max response, negative = inhibition is inconclusive: -30.4%.

Q: How did the max response, negative = inhibition turn out when COCCCNC(=O)CCC(=O)Nc1ccc2nc(N3CCOCC3)cc(C)c2c1 was run?
A: Its max response, negative = inhibition is inconclusive: -37.2%.

Q: Which max response, negative = inhibition does the source give for O=C(/C=C/c1cn(CC(O)CN2CCCCCC2)c2ccccc12)c1cccs1 (stereo not drawn) here?
A: Its max response, negative = inhibition is inactive: 5.25%.

Q: With CCN1CCN(CCNC(=O)C2CCCN(Cc3nc(-c4cccc(Cl)c4)oc3C)C2)CC1 (stereo not drawn) as the compound, how does the max response, negative = inhibition read?
A: Its max response, negative = inhibition is inactive: -17.4%.

Q: Which max response, negative = inhibition does the source give for CCc1ccc(-n2c(=S)sc3c(=O)[nH]c(SCC(=O)NC4CCCCC4)nc32)cc1 here?
A: The max response, negative = inhibition was active: -50.6%.

Q: How did the max response, negative = inhibition turn out when O=C(CSc1nc(C2CC2)nc2ccccc12)Nc1ccccc1Cl was run?
A: Its max response, negative = inhibition is inactive: -14.1%.
